Source: publication PMC7435699
No constants are given. Whether binding was seen depends on the method and setting. In cells and extracts the contact can be indirect. Some entries that bind do so weakly or less than the wild type.

Sequences of proteins named here, by UniProt entry; tags and fusion partners are left off.
UniProt O75365: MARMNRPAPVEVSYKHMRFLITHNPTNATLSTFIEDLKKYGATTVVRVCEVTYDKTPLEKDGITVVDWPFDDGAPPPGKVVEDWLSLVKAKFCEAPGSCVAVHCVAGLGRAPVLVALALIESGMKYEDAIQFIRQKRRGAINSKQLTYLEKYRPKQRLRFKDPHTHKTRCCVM

Target: human PRL3 fused to HA (human) (UniProt O75365)
Test: co-IP; A375 cells stably expressing PRL3-HA or empty vector, lysed in RIPA buffer; anti-HA-tag magnetic beads; blot with anti-DDX21

binding: binds
B1: DDX21 (human, endogenous in A375 melanoma cells) (protein, UniProt Q9NR30 1-783)
chain: MPGKLRSDAGLESDTAMKKGETLRKQTEEKEKKEKPKSDKTEEIAEEEETVFPKAKQVKKKAEPSEVDMNSPKSKKAKKKEEPSQNDISPKTKSLRKKKEPIEKKVVSSKTKKVTKNEEPSEEEIDAPKPKKMKKEKEMNGETREKSPKLKNGFPHPEPDCNPSEAASEESNSEIEQEIPVEQKEGAFSNFPISEETIKLLKGRGVTFLFPIQAKTFHHVYSGKDLIAQARTGTGKTFSFAIPLIEKLHGELQDRKRGRAPQVLVLAPTRELANQVSKDFSDITKKLSVACFYGGTPYGGQFERMRNGIDILVGTPGRIKDHIQNGKLDLTKLKHVVLDEVDQMLDMGFADQVEEILSVAYKKDSEDNPQTLLFSATCPHWVFNVAKKYMKSTYEQVDLIGKKTQKTAITVEHLAIKCHWTQRAAVIGDVIRVYSGHQGRTIIFCETKKEAQELSQNSAIKQDAQSLHGDIPQKQREITLKGFRNGSFGVLVATNVAARGLDIPEVDLVIQSSPPKDVESYIHRSGRTGRAGRTGVCICFYQHKEEYQLVQVEQKAGIKFKRIGVPSATEIIKASSKDAIRLLDSVPPTAISHFKQSAEKLIEEKGAVEALAAALAHISGATSVDQRSLINSNVGFVTMILQCSIEMPNISYAWKELKEQLGEEIDSKVKGMVFLKGKLGVCFDVPTASVTEIQEKWHDSRRWQLSVATEQPELEGPREGYGGFRGQREGSRGFRGQRDGNRRFRGQREGSRGPRGQRSGGGNKSNRSQNKGQKRSFSKAFGQ
